Results published in patent US11911551B2, “Method for treating drug intoxication” (ExThera Medical Corporation, priority 2016, dated 2024).
Some entries repeat one wording, which the source may state once for all of them.

Assay: Antibiotic-spiked blood passed through 1-mL minicartridge filled with heparinized media; plasma concentration before and after
Details: 2 mL spiked blood passed through heparinized-media minicartridge over 20 second; FIG. 3

SMILES | concentration of drug in the plasma before and after contacting the adsorption media
CC(C)(O/N=C(\C(=O)N[C@@H]1C(=O)N2C(C(=O)[O-])=C(C[n+]3ccccc3)CS[C@H]12)c1csc(N)n1)C(=O)O [ceftazidime] | reduction in concentration
CCCCCCCCCC(=O)N[C@@H](Cc1c[nH]c2ccccc12)C(=O)N[C@H](CC(N)=O)C(=O)N[C@@H](CC(=O)O)C(=O)N[C@@H]1C(=O)NCC(=O)N[C@@H](CCCN)C(=O)N[C@@H](CC(=O)O)C(=O)N[C@H](C)C(=O)N[C@@H](CC(=O)O)C(=O)NCC(=O)N[C@H](CO)C(=O)N[C@@H]([C@H](C)CC(=O)O)C(=O)N[C@@H](CC(=O)c2ccccc2N)C(=O)O[C@@H]1C [daptomycin] | reduction in concentration
C[C@@H]1O[C@@H]1P(=O)(O)O [fosfomycin] | reduction in concentration
CC(=O)NC[C@H]1CN(c2ccc(N3CCOCC3)c(F)c2)C(=O)O1 [linezolid] | reduction in concentration
CN[C@H](CC(C)C)C(=O)N[C@H]1C(=O)N[C@@H](CC(N)=O)C(=O)N[C@H]2C(=O)N[C@H]3C(=O)N[C@H](C(=O)N[C@H](C(=O)O)c4cc(O)cc(O)c4-c4cc3ccc4O)[C@H](O)c3ccc(c(Cl)c3)Oc3cc2cc(c3O[C@@H]2O[C@H](CO)[C@@H](O)[C@H](O)[C@H]2O[C@H]2C[C@](C)(N)[C@H](O)[C@H](C)O2)Oc2ccc(cc2Cl)[C@H]1O [vancomycin] | reduction in concentration
